Experimental data taken from publication PMC8534003, “The Chemokine-Based Peptide, CXCL9(74-103), Inhibits Angiogenesis by Blocking Heparan Sulfate Proteoglycan-Mediated Signaling of Multiple Endothelial Growth Factors” (Cancers, 2021).

Molecular target: human recombinant EGF (human)
Assay: ELISA; ELISA-like direct binding assay: 96-well plates coated with 50 ng/mL growth factor in PBS at 4 °C overnight; blocked with 0.1% casein, 0.05% Tween 20 in PBS; biotinylated CXCL9(74-103) 1-1000 ng/mL, 37 °C, 1 h; detected with streptavidin-HRP; both purified

## KKKQKNGKKHQKKKVLKVRKSQRSRQKKTT (biotin at the NH2-terminus) [biotinylated CXCL9(74-103)]
  binding: no binding (tested: 1-1000 ng/mL biotinylated CXCL9(74-103))

These are yes or no findings as the source states them, for the method shown.
